In article PMC4740771, “Nucleotide-dependent assembly of the peroxisomal receptor export complex” (Scientific Reports, 2016):
These are yes or no findings as the source states them, for the method shown. Sequences can lack the tags named with a protein.

Target: T1, GST-Pex15p(1-315)His (S. cerevisiae) (UniProt Q08215)
T1 sequence: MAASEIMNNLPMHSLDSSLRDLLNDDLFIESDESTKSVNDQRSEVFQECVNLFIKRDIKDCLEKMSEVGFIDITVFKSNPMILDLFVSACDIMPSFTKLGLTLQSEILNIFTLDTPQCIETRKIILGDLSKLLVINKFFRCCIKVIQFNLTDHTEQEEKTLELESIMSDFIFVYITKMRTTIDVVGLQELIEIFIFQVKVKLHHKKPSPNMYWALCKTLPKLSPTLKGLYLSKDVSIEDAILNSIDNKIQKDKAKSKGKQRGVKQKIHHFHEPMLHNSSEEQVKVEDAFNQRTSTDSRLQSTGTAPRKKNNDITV
Experiment: pull-down; GST-Pex15p(1-315)His incubated with purified proteins, loaded on GSH-agarose, eluted with glutathione; 5 mM ATP; Coomassie and immunoblot, signal intensities of load and eluate; both purified

binding: no binding
B1: HisPex1p (protein, UniProt P24004 1-1043)
chain: MTTTKRLKFENLRIQFSNAIVGNFLRLPHSIINVLESTNYAIQEFGIAVHSHNSDIPIVHLGWDGHDSGSSENVVLINPVLATVYDLNQKSPLVDLYIQRYDHTHLATEVYVTPETSDDWEIIDANAMRFQNGEILHQTRIVTPGETLICYLEGIVTKFKIDRVEPSMKSARITDGSLVVVAPKVNKTRLVKAEYGHSNKTILKNGAIQLLKKVILRSTVCKMDFPKDNLFVVYISDGAQLPSQKGYASIVKCSLRQSKKSDSDNKSVGIPSKKIGVFIKCDSQIPENHIALSSHLWDAFFTHPMNGAKIKLEFLQMNQANIISGRNATVNIKYFGKDVPTKSGDQYSKLLGGSLLTNNLILPTEQIIIEIKKGESEQQLCNLNEISNESVQWKVTQMGKEEVKDIIERHLPKHYHVKETGEVSRTSKDEDDFITVNSIKKEMVNYLTSPIIATPAIILDGKQGIGKTRLLKELINEVEKDHHIFVKYADCETLHETSNLDKTQKLIMEWCSFCYWYGPSLIVLDNVEALFGKPQANDGDPSNNGQWDNASKLLNFFINQVTKIFNKDNKRIRVLFSGKQKTQINPLLFDKHFVSETWSLRAPDKHARAKLLEYFFSKNQIMKLNRDLQFSDLSLETEGFSPLDLEIFTEKIFYDLQLERDCDNVVTRELFSKSLSAFTPSALRGVKLTKETNIKWGDIGALANAKDVLLETLEWPTKYEPIFVNCPLRLRSGILLYGYPGCGKTLLASAVAQQCGLNFISVKGPEILNKFIGASEQNIRELFERAQSVKPCILFFDEFDSIAPKRGHDSTGVTDRVVNQLLTQMDGAEGLDGVYILAATSRPDLIDSALLRPGRLDKSVICNIPTESERLDILQAIVNSKDKDTGQKKFALEKNADLKLIAEKTAGFSGADLQGLCYNAYLKSVHRWLSAADQSEVVPGNDNIEYFSINEHGRREENRLRLKTLLQQDVVHETKTSTSAASELTAVVTINDLLEACQETKPSISTSELVKLRGIYDRFQKDRNGEMPNGENSIDIGSRLSLM
